Hit rate of the full screen: of about 320,000 compounds, about 22,000 (6.9%) were called active. The shares of active, inactive and inconclusive entries below differ from those in the screen. The call rests on the fitted dose curve; in most records, active means well fitted inhibition curve with a large enough effect; inconclusive means small, poorly fitted or top-dose-only effect, or another doubt; inactive means no such curve, though single readings can be large or run the other way. Potencies beside an inconclusive call are fits to weak or partial responses and may not hold up.
assay: Primary qHTS for delayed death inhibitors of the malarial parasite plastid, 96 hour incubation; conditions: P. falciparum luciferase reporter growth; series mostly up to 28.7 µM
Outline: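 Readout is luminescence from an integrated firefly luciferase in P. falciparum. Red cells, 2% hematocrit and 0.05% parasitemia final, were cultured with compound through two parasite generations (96 hours) at 37 C, 5% CO2.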
Potency means the concentration at half of the fitted maximal effect.

Row | Structure (SMILES) | Potency
1 | Cc1ccc(S(=O)(=O)N(CCC(=O)NCc2ccc(S(N)(=O)=O)cc2)c2ccccc2)cc1 | inconclusive: 6.57 µM [inhibitor, partial curve, poor fit]
2 | COc1ccc(NC(=O)C2CC(c3c(F)cccc3Cl)=NO2)cc1 (centres undefined) | inactive
3 | Cc1cccc(CSc2nc3c(c(=O)[nH]2)CCCC3)c1 | inconclusive: 18.5 µM [inhibitor, single point]
4 | COc1ccccc1C(=O)NCCC(=O)NCC(c1ccco1)N1CCCCC1 (centres undefined) | inconclusive: 7.38 µM [inhibitor, partial curve]
5 | Cc1ccc(C(=O)C[n+]2ccccc2C)cc1[N+](=O)[O-] | inconclusive: 0.0041 µM [inhibitor, full curve, poor fit]
6 | C/C(CC(=O)N1CCN(C=O)CC1)=N\NC(=O)c1ccc(Br)cc1 | inconclusive: 18.5 µM [inhibitor, single point]
7 | CCC1=Nc2cc(C(=O)NCC3CCCO3)ccc2Sc2ccc(Br)cc21 (centres undefined) | inconclusive: 11.7 µM [inhibitor, single point]
8 | Cc1ccc2c(c1)C1CN(C)CCC1N2C(=S)NC(=O)c1ccc(Br)cc1 (centres undefined) | inconclusive: 4.65 µM [inhibitor, partial curve, poor fit]
9 | C/C(Cc1ccccc1)=N\NC(=O)c1ccc(F)cc1 | inconclusive: 14.7 µM [inhibitor, partial curve]
10 | CC(C)c1ccc2c(c1)C(=O)NC(C)(C)C2 | inconclusive: 18.5 µM [inhibitor, single point]
11 | Cc1c(Cl)cccc1NS(=O)(=O)c1c(C(=O)N2CCOCC2)c(C)n(C)c1C | inactive
12 | O=C(CSc1nnc(Nc2ccccc2)s1)NCc1cccs1 | active: 11.7 µM
13 | CC(=O)N1CCN(C(=O)CCc2nnc(CCCCc3ccccc3)o2)CC1 | active: 11.7 µM
14 | Cc1c(O)ccc2c(CN3CCN(Cc4ccccc4)CC3)cc(=O)oc12 | inconclusive: 9.28 µM [inhibitor, partial curve, poor fit]
15 | CC(C)Cn1c(O)c(/C=C2\C=NN=C2c2ccccc2)sc1=S | inconclusive: 18.5 µM [inhibitor, single point]
16 | Cn1nnc2cc(C(=O)Nc3ccccc3)ccc21 | inactive
17 | CCCc1cc(=O)oc2cc(C)cc(OCC(=O)Nc3ccc(S(N)(=O)=O)cc3)c12 | inconclusive: 18.5 µM [inhibitor, single point]
18 | O=S(=O)(c1ccccc1C(F)(F)F)N1CCN(CC(O)COc2ccccc2F)CC1 (centres undefined) | inconclusive: 11.7 µM [inhibitor, single point]
19 | Cc1ccc(CNC(=O)C2CCCN(c3cnccn3)C2)cc1 (centres undefined) | inconclusive: 18.5 µM [inhibitor, single point]
20 | O=C(CN(C1CCCCC1)S(=O)(=O)c1ccccc1)NCc1cccnc1 | active: 9.28 µM
21 | O=C1CN(C(=O)CSc2nc3c(cnn3-c3ccccc3)c(=O)[nH]2)c2ccccc2N1 | inconclusive: 11.7 µM [inhibitor, single point]
22 | Cc1ccc(C)c(OCCCNC2CCCC2)c1C | inconclusive: 18.5 µM [inhibitor, single point]
23 | Cn1c(=O)c2c(nc(CN3CCC(C(N)=O)CC3)n2Cc2ccccc2F)n(C)c1=O | inconclusive: 13.1 µM [inhibitor, single point]

Row | Structure (SMILES) | Potency
24 | COC(=O)[C@H](Cc1ccccc1)NC(=O)NCc1ccccc1 | inactive
25 | CCn1nc(NC(=O)CC(C)C)c2cc3cccc(C)c3nc21 | inconclusive: 11.7 µM [inhibitor, single point]
26 | Fc1ccc(C(c2ccc(F)cc2)N2CCN(CC=Cc3ccccc3)CC2)cc1 | inconclusive: 3.01 µM [inhibitor, partial curve, poor fit]
27 | CC(=O)c1ccc(C(C)(C)c2ccc(C(C)=O)s2)s1 | active: 11.7 µM
28 | CCOC(=O)C1CCCN(c2nc(C)nc3c2oc2ccccc23)C1 (centres undefined) | inconclusive: 13.1 µM [inhibitor, partial curve, poor fit]
29 | CC(C)c1cc(CNC(=O)c2ccc(OC3CCN(Cc4ccccn4)CC3)cc2)on1 | inconclusive: 18.5 µM [inhibitor, single point]
30 | CCOC(=O)c1cccc(NC(=O)c2ccccc2C)c1 | inactive
31 | COc1cccc(CNC(=O)CCCNC(=O)c2ccc(Cl)cc2)c1 | inconclusive: 10.4 µM [inhibitor, partial curve, poor fit]
32 | CC(=O)c1cc(O)c2ccccc2c1O | inconclusive: 20.8 µM [inhibitor, partial curve, poor fit]
33 | Cc1cc(C)cc(NC(=S)N2CCC(NC(=O)c3ccco3)CC2)c1 | inactive
34 | COc1ccc(S(=O)(=O)N2CCc3ccccc32)cc1C(=O)NC1(C)CCS(=O)(=O)C1 (centres undefined) | inactive
35 | Cc1ccccc1OCC(=O)Nc1ccncc1 | inactive
36 | COc1ccc(-c2[nH]ncc2CN2CCC(OCc3cccnc3)CC2)c(F)c1 | inactive
37 | C=CCN(c1ccccc1)S(=O)(=O)c1cccc(C(=O)NCC2CCCO2)c1 (centres undefined) | inactive
38 | COc1ccc(CNCC(O)(c2ccccc2)c2ccccc2)cc1 | inactive
39 | CC(C)(CNC(=O)Cc1ccc(NS(=O)(=O)c2cccc(C(F)(F)F)c2)cc1)N1CCOCC1 | inconclusive: 1.04 µM [inhibitor, full curve]
40 | COc1cc(OC)cc(C(=O)NCCC(=O)NCCc2ccc(OC)c(OC)c2)c1 | inconclusive: 0.131 µM [inhibitor, full curve, poor fit]
41 | COc1ccc(S(=O)(=O)NC(C)C)cc1C(=O)N1CCOCC1 | inactive
42 | COc1ccc(N2CCN(Cc3nc(N)nc(Nc4ccccc4OC)n3)CC2)cc1 | inconclusive: 11.7 µM [inhibitor, single point]
43 | C/C(=N/Nc1ccc(C(=O)O)cc1)c1ccc(O)c(O)c1O | inconclusive: 18.5 µM [inhibitor, single point]
44 | COc1ccccc1C(=O)NCCC(=O)N1CCN(c2ccc(C(F)(F)F)cn2)CC1 | inconclusive: 18.5 µM [inhibitor, single point]
45 | N#C/C(=C\c1c(N2CCN(Cc3ccccc3)CC2)nc2ccccn2c1=O)S(=O)(=O)c1ccccc1 | inconclusive: 18.5 µM [inhibitor, single point]
46 | Cc1ccc(S(=O)(=O)N(C)/N=C2/C(=O)N(CC(=O)O)c3ccccc32)cc1 | inconclusive: 8.28 µM [inhibitor, partial curve, poor fit]

Row | Structure (SMILES) | Potency
47 | O=C(CN1CCOC1=O)N1CCCC(Nc2ccc(F)c(F)c2)C1 (centres undefined) | inconclusive: 10.4 µM [inhibitor, single point]
48 | O=C(Nc1ccc(F)cc1)c1sccc1SCc1cccc(C(F)(F)F)c1 | inconclusive: 18.5 µM [inhibitor, single point]
49 | O=C(CCN1C(=O)C2C3C=CC(C3)C2C1=O)NCc1cccnc1 (centres undefined) | inconclusive: 2.08 µM [inhibitor, full curve]
50 | CCOC(=O)C(Cc1ccccc1)NC(=O)CCc1nnc2ccc(N3CCCC3)nn12 (centres undefined) | inconclusive: 14.7 µM [inhibitor, single point]
51 | COCCN1C(=O)N(c2cccc(OC)c2)C(=O)C1CC(=O)Nc1cccc(F)c1 (centres undefined) | active: 4.15 µM
52 | Cc1sc(NC(=O)CSc2nnc(-c3ccc(F)cc3)o2)c(C#N)c1C | active: 9.28 µM
53 | O=[N+]([O-])c1cc([N+](=O)[O-])c(Oc2cc(F)cc(F)c2)cc1NN1CCCCC1 | inactive
54 | CN(CCc1ccccn1)Cc1ccc(Cl)c(Cl)c1 | inactive
55 | COc1ccc(CCNc2ccc(C(CC(N)=O)NC(=O)Cc3cccc4ccccc34)cc2[N+](=O)[O-])cc1 (centres undefined) | inconclusive: 9.28 µM [inhibitor, single point]
56 | CC(=O)Nc1ccc(NC(=O)Cc2ccc(F)cc2)cc1 | inactive
57 | Cc1ccc(S(=O)(=O)NCCC(=O)N2CCCC(C)C2)cc1 (centres undefined) | inconclusive: 18.5 µM [inhibitor, single point]
58 | Cc1c(Br)c([N+](=O)[O-])nn1CC(=O)NCCc1c[nH]c2ccccc12 | inactive
59 | CCOC(=O)N1CCN(C(=O)c2ccc(-n3c(C)ccc3C)cc2)CC1 | active: 10.4 µM
60 | COc1cc(OC)c2c(c1)O[C@@H](c1ccc(OC)c(OC)c1)[C@H](O)C2 | inconclusive: 16.5 µM [inhibitor, single point]
61 | CC(CCc1ccccc1)N(C)CC(O)c1cccc([N+](=O)[O-])c1 (centres undefined) | inconclusive: 0.928 µM [inhibitor, full curve, poor fit]
62 | C=CCSc1nsc(NC(=O)Nc2cccc(C(C)=O)c2)n1 | inconclusive: 10.4 µM [inhibitor, partial curve, poor fit]
63 | CC(C)OCCCNC(=O)CN1C(=O)CC(C)(C)S(=O)(=O)c2ccccc21 | inconclusive: 0.0928 µM [inhibitor, full curve]
64 | CCOC(=O)C1CCN(C(=O)COc2ccc(S(=O)(=O)N3CCCC3)cc2C)CC1 | active: 3.29 µM
65 | COc1ccc2c(c1)OC(c1ccccc1)(C(F)(F)F)NC2=O (centres undefined) | inconclusive: 0.465 µM [inhibitor, full curve, poor fit]
66 | CC1CC(C)CN(C(=O)c2cc3cc(Br)cc(Br)c3o2)C1 (centres undefined) | inactive
67 | CCCNS(=O)(=O)c1ccc(OCC(=O)N2CCN(Cc3ccc4c(c3)OCO4)CC2)cc1 | inconclusive: 11.7 µM [inhibitor, single point]
68 | O=C(O)c1cccc(S(=O)(=O)Nc2ccc(OCc3ccccc3)cc2)c1 | inactive
69 | O=C1CN(C(=O)c2ccccc2)C(c2ccccc2)c2cc(Cl)ccc2N1 (centres undefined) | inconclusive: 11.7 µM [inhibitor, single point]

Reference: PubChem BioAssay AID504834 (National Center for Advancing Translational Sciences (NCATS), 2011)
